Consider one molecule from publication PMC8556400.

These are yes or no findings as the source states them, for the method shown. In cells and extracts the contact can be indirect. Some results given as binding are weak or reduced against the parent protein; the word gives no strength.

The target of the assay is T1, Matrin-3 (Matr3), endogenous mouse (mouse (endogenous in MEL)) (UniProt Q8K310).
T1 sequence: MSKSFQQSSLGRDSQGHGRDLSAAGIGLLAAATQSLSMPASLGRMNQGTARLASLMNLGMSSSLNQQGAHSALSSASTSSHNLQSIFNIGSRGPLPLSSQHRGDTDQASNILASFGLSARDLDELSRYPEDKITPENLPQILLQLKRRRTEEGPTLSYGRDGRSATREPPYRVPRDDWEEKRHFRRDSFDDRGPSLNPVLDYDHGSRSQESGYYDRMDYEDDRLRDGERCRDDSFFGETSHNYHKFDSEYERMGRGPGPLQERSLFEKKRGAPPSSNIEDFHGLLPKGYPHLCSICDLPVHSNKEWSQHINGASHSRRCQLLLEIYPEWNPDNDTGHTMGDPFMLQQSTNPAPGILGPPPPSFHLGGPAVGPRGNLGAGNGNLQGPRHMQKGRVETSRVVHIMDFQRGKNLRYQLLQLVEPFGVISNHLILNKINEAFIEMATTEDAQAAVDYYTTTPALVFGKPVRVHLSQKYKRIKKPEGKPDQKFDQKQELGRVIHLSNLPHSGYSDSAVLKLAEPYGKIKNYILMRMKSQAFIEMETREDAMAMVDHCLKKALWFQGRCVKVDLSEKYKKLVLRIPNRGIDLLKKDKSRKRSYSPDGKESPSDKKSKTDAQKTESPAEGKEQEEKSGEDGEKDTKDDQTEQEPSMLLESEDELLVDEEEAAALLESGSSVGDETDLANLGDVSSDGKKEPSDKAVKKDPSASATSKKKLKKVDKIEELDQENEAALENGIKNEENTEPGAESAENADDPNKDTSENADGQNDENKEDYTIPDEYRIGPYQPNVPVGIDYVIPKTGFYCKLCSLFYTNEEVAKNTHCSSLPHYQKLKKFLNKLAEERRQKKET
As to the kind of experiment: co-IP; MEL nuclear extracts incubated with antibody to endogenous Matr3 overnight at 4 °C; Protein G/A magnetic beads; IP buffer 20 mM HEPES pH 7.9, 25% glycerol, 200 mM NaCl, 1.5 mM MgCl2, 0.2 mM EDTA, 0.02% NP-40; Western blot. (A western blot detects proteins with antibodies after separation by electrophoresis.)

B1: CCCTC-binding factor (CTCF) (protein, UniProt Q61164 1-736)
chain: MEGEAVEAIVEESETFIKGKERKTYQRRREGGQEEDACHLPQNQTDGGEVVQDVNSSVQMVMMEQLDPTLLQMKTEVMEGTVAPEAEAAVDDTQIITLQVVNMEEQPINIGELQLVQVPVPVTVPVATTSVEELQGAYENEVSKEGLAESEPMICHTLPLPEGFQVVKVGANGEVETLEQGELPPQEDSSWQKDPDYQPPAKKTKKTKKSKLRYTEEGKDVDVSVYDFEEEQQEGLLSEVNAEKVVGNMKPPKPTKIKKKGVKKTFQCELCSYTCPRRSNLDRHMKSHTDERPHKCHLCGRAFRTVTLLRNHLNTHTGTRPHKCPDCDMAFVTSGELVRHRRYKHTHEKPFKCSMCDYASVEVSKLKRHIRSHTGERPFQCSLCSYASRDTYKLKRHMRTHSGEKPYECYICHARFTQSGTMKMHILQKHTENVAKFHCPHCDTVIARKSDLGVHLRKQHSYIEQGKKCRYCDAVFHERYALIQHQKSHKNEKRFKCDQCDYACRQERHMIMHKRTHTGEKPYACSHCDKTFRQKQLLDMHFKRYHDPNFVPAAFVCSKCGKTFTRRNTMARHADNCAGPDGVEGENGGETKKSKRGRKRKMRSKKEDSSDSEENAEPDLDDNEEEEEPAVEIEPEPEPQPQPPPPPQPVAPAPPPAKKRRGRPPGRTNQPKQNQPTAIIQVEDQNTGAIENIIVEVKKEPDAEPAEGEEEEAQAATTDAPNGDLTPEMILSMMDR
As to B1, the binding entry is listed as “binds”.
